Assay results: PubChem BioAssay AID2685 (National Center for Advancing Translational Sciences (NCATS), 2010)
This is one part of the list. Shown are side measurements of this screen, not its main read-out; they come without a call. Compounds called inactive in the main read-out are mostly missing here. Potencies come from curve fits of mixed quality, noted in brackets.

Assay: qHTS Assay for Lipid Storage Modulators in Drosophila S3 Cells;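 for cell number change: cells counted by Cell Tracker Red CMTPX staining in the red channel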
Conditions: BODIPY lipid droplet fluorescence, 18-24 h; for cell number change: measured here: cell count max response, cells fed with added oleic acid
Method in brief: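 Drosophila S3 cells loaded with oleic acid (400 uM, as added) and compounds at several concentrations; lipid droplets imaged by 488-nm laser-scanning cytometry, 500–530 nm intensity and object ratio to cell channel. Percent activity normalized to 20 uM Triacsin C.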

[1] = measured here: cell number channel AC50, cells fed with added oleic acid
[2] = measured here: lipid fluorescence (Fed channel) AC50, cells fed with added oleic acid

| Structure (SMILES) | cell number change [%] | AC50 [1] | AC50 [2] |
| --- | --- | --- | --- |
| CNc1nc(Cl)c(SC)c(N2CCOCC2)n1 | 30.4 | 0.291 µM [rising, partial curve, poor fit] | – |
| Cc1cc(=O)n(CCC(=O)O)c2ccccc12 | 5.02 | – | 29.1 µM [rising, single point] |
| CC(CCc1ccc(O)cc1)NCc1ccc(Br)cc1 (stereo not given) | -23.2 | – | – |
| COC(=O)/C=C1\SC(=NC(=O)c2ccc(OC)cc2)NC1=O | 3.04 | – | – |
| CS(=O)(=O)N(CCc1ccccc1)CC(=O)Nc1ccc(OCc2ccccc2)cc1 | 20.1 | – | 0.146 µM [falling, full curve, poor fit] |
| Cc1cc([N+](=O)[O-])ccc1NC(=O)c1csc(C)c1C | -2.48 | – | 29.1 µM [rising, single point] |
| CCCCN(CC)C(=O)c1ccc(Cl)cc1 | 23.5 | 0.184 µM [rising, full curve, poor fit] | – |
| CCCn1nnnc1NCc1ccccc1OCc1cccs1 | 7.89 | – | 29.1 µM [rising, single point] |
| Cc1cccn2cc(CSc3ccccc3N)nc12 | 30.5 | 3.66 µM [rising, partial curve, poor fit] | – |
| Cc1nn(Cc2ccccc2)c2c1C(c1cccc(Cl)c1)C(C#N)=C(N)O2 (stereo not given) | -11.2 | 0.0058 µM [falling, full curve, poor fit] | 0.103 µM [falling, full curve, poor fit] |
| CSc1n[nH]c(=S)n1N | 4.37 | 0.092 µM [falling, partial curve, poor fit] | – |
| CCCCNC(=O)COC(=O)c1ccc(NC(C)=O)cc1 | 23.7 | – | – |
| NC(=S)Nc1c(Cl)cccc1Cl | -11.5 | – | 0.366 µM [falling, partial curve, poor fit] |
| CC(=O)c1cccc(-n2nnnc2SCC(=O)NNC(=O)C(C)C)c1 | 13.5 | – | 20.6 µM [rising, single point] |
| Cc1ccc2onc(CC(=O)O)c2c1 | – | 5.8 µM [rising, single point] | 0.731 µM [falling, full curve] |
| O=C1c2ccccc2C(=O)N1Cc1nc2ccccc2c(=O)n1Cc1ccco1 | -16.1 | – | 0.164 µM [falling, full curve, poor fit] |
| COc1cccc(-c2nn(-c3ccccc3)cc2C(=O)n2nnc3ccccc32)c1 | 7.7 | – | 6.51 µM [rising, single point] |
| Cc1ccc(N2CC(O)Cn3c2nc2c3c(=O)n(C)c(=O)n2C)cc1 (stereo not given) | 7.21 | – | – |
| CCOc1ccc2[nH]c(=O)c(CN(CCO)C(=O)CC)cc2c1 | -6.43 | – | 0.00411 µM [falling, full curve, poor fit] |
| COc1ccc(C(=O)CSc2cc(C)nc3nc(C)nn23)cc1OC | – | 0.092 µM [rising, full curve, poor fit] | 0.13 µM [rising, full curve, poor fit] |
| N#Cc1ccsc1NC(=O)c1cccc(-n2cnnn2)c1 | 13.9 | – | – |

| Structure (SMILES) | cell number change [%] | AC50 [1] | AC50 [2] |
| --- | --- | --- | --- |
| COc1ccccc1Cn1c(=O)[nH]c2cccnc21 | 2.13 | – | 0.116 µM [rising, full curve, poor fit] |
| CN(NC(=O)c1ccccc1F)c1nc(C(F)(F)F)nc2ccccc12 | 6.1 | – | 4.11 µM [rising, single point] |
| CCOc1ccccc1C(=O)Nc1c[nH]c(=O)[nH]c1=O | -7.14 | – | – |
| CN(C(=O)CSc1nnc(C2CC2)n1C1CC1)C1(C#N)CCCCC1 | 19.9 | 2.91 µM [falling, single point] | 2.91 µM [falling, single point] |
| COc1cccc(C(=O)Nc2ccc3[nH]c(=O)[nH]c3c2)c1OC | 20.6 | – | – |
| O=C(CC12CC3CC(CC(C3)C1)C2)Nc1nncs1 | -0.99 | – | 6.51 µM [falling, single point] |
| O=C(NCc1ccccc1)N[C@@H](Cc1ccccc1)C(=O)O | -65.9 | 20.6 µM [falling, single point] | – |
| COc1ccc(S(=O)(=O)N2CCC(C(=O)NC3CCCCC3)CC2)cc1C | 25 | – | – |
| CC12CC3(C)CC(C)(C1)CC(C(N)=O)(C2)C3 | 9.23 | – | 0.0731 µM [falling, full curve, poor fit] |
| O=C(O)c1ccc(N2C(=O)CC(SC(=NCc3ccc4c(c3)OCO4)Nc3ccc(F)cc3)C2=O)cc1 (stereo not given) | -32.9 | 0.103 µM [falling, full curve, poor fit] | – |
| Cc1cc(C(=O)COC(=O)c2ccc(Br)o2)c(C)n1C | 32 | 32.6 µM [rising, single point] | 29.1 µM [rising, single point] |
| CC(C)Nc1nc(Cl)nc(NN(C)c2nc(N(C)C)nc(N(C)C)n2)n1 | 66.8 | 29.1 µM [rising, single point] | 23.1 µM [rising, single point] |
| COc1ccc(-c2nnc(NC(=O)c3ccc(S(=O)(=O)N(C)CC4CCCO4)cc3)o2)c(OC)c1 (stereo not given) | -2.02 | – | 2.06 µM [falling, partial curve] |
| COc1ccc(Nc2cc(Cl)nc(N)n2)cc1OC | 27.2 | – | 0.00461 µM [rising, full curve] |
| C=C(C)COc1ccc(-c2[nH]ncc2Oc2ccccc2OCC)c(O)c1 | -72.2 | 13 µM [falling, partial curve, poor fit] | 3.66 µM [falling, partial curve] |
| CC(C)[C@H](NC(N)=O)C(=O)Nc1cccc(S(=O)(=O)NC2=NCCCCC2)c1 | 164 | 29.1 µM [rising, partial curve] | 20.6 µM [rising, partial curve] |
| O=S(=O)(c1cc(Cl)ccc1Cl)N1CCN2CCCC2C1 (stereo not given) | 1.81 | – | 0.13 µM [rising, full curve, poor fit] |
| O=C(Nc1cccc(Cl)c1)Nc1cccc(Cl)c1 | -32.6 | 7.31 µM [falling, partial curve] | 10.3 µM [falling, partial curve] |
| CCc1ccc(OCC(=O)NNC(=O)c2cc(S(=O)(=O)N(C)C)ccc2N2CCCC2)cc1 | 16.6 | – | 29.1 µM [rising, single point] |
| CC(NC(=O)CSC1=NCCS1)c1ccccc1 (stereo not given) | 0.16 | – | 29.1 µM [falling, single point] |
| CSCC[C@H](NC(=O)NCCC1=CCCCC1)C(=O)O | -76.7 | 32.6 µM [falling, partial curve] | 29.1 µM [falling, single point] |

| Structure (SMILES) | cell number change [%] | AC50 [1] | AC50 [2] |
| --- | --- | --- | --- |
| CC1CC(C)CN(CCCNC(=O)CCC(=O)N2CC(C)Oc3ccccc32)C1 (stereo not given) | 11.5 | – | – |
| COC(=O)c1cccc(NC(=O)CSc2nnc(C)n2Cc2ccccc2)c1 | 11.9 | – | 2.06 µM [rising, full curve] |
| Cc1cc(C)cc(NC(=O)c2ccc3nc[nH]c3c2)c1 | 12.7 | – | 29.1 µM [rising, partial curve] |
| C/C(=N\N=C1\NC(=O)C(CC(=O)Nc2ccc(C)c(Cl)c2)S1)C(C)(C)C (stereo not given) | -47.7 | 20.6 µM [falling, single point] | – |
| O=C(Nc1ccc(S(=O)(=O)N2CCCCCC2)cc1)c1ccc(Br)o1 | 14.4 | – | 29.1 µM [falling, single point] |
| COc1ccc(N2C(=O)c3ccccc3NC2c2ccc(NC(C)=O)cc2)c(OC)c1 (stereo not given) | 7.62 | – | – |
| Cc1cc(-c2ccccc2)nnc1NCCN1CCOCC1 | -9.4 | – | 5.8 µM [rising, partial curve] |
| COn1c(-c2ccccc2)nc2ncccc21 | -1.77 | – | – |
| COc1ccc(S(=O)(=O)N2CCC(Cc3ccccc3)CC2)cc1C(N)=O | 12.9 | – | 10.3 µM [falling, single point] |
| CC(C)N(C(=O)COC(=O)c1ccc(Cl)s1)c1ccccc1 | -15.7 | – | – |
| CCn1c(Cc2ccccc2)nnc1SCC(=O)c1c(N)n(C2CC2)c(=O)[nH]c1=O | 12.3 | – | 5.8 µM [falling, partial curve, poor fit] |
| O=C(COc1ccc2ccc(=O)oc2c1)NC1CCN(Cc2ccccc2)CC1 | -0.283 | – | 29.1 µM [rising, single point] |
| CC1=CC2=C(OC1N(C)C)c1cccc3cccc(c13)C2=O (stereo not given) | 1.56 | – | 6.51 µM [rising, single point] |
| O=C(N/N=C1\C(=O)c2cccc3cccc1c23)c1ccc(O)cc1 | -50.3 | 35.5 µM [falling, single point] | 14.1 µM [falling, single point] |
| CCOc1ccc(-n2c(N)c(C(=O)NCC3CCCO3)sc2=S)cc1 (stereo not given) | 6.69 | – | 0.58 µM [rising, single point] |
| Cc1cc(Nc2nc3ccccc3nc2Cl)n(-c2ccc([N+](=O)[O-])cc2)n1 | – | 6.51 µM [rising, single point] | 6.51 µM [rising, single point] |
| O=C(Nc1ccccc1C(=O)O)c1cccc(N2C(=O)c3ccccc3C2=O)c1 | 13.3 | – | – |
| CCOC(=O)c1c(NC(=O)CSc2nnc(CNc3ccc(F)cc3)o2)sc(C(C)=O)c1C | 0.885 | – | 0.291 µM [rising, partial curve, poor fit] |
| Cc1ccc(N/C(N)=N/c2nc(CSc3ccc(C)cc3)cc(=O)[nH]2)cc1 | 13.3 | – | – |
| O=C(Cn1cccc1C(=O)c1ccccc1)NCCc1ccc(Cl)cc1 | 79.5 | 18.4 µM [rising, partial curve] | – |
| O=C(Cn1cc(C(=O)c2ccco2)c2ccccc21)Nc1ccccc1 | – | – | 0.00517 µM [rising, full curve, poor fit] |

Sorted by molecular weight (ascending): part of the list above

| Structure (SMILES) | cell number change [%] | AC50 [1] | AC50 [2] |
| --- | --- | --- | --- |
| O=C(N/N=C1\C(=O)c2cccc3cccc1c23)c1ccc(O)cc1 | -50.3 | 35.5 µM [falling, single point] | 14.1 µM [falling, single point] |
| COc1ccc(N2C(=O)c3ccccc3NC2c2ccc(NC(C)=O)cc2)c(OC)c1 (stereo not given) | 7.62 | – | – |
| O=C(Nc1ccc(S(=O)(=O)N2CCCCCC2)cc1)c1ccc(Br)o1 | 14.4 | – | 29.1 µM [falling, single point] |
